PubChem BioAssay AID743121 – NCATS | 2013

Assay: 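Partners whose loss is lethal together with topoisomerase I blockade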 (primary screen)
Cell system: MDA-MB-231 cells, a human breast cancer line
Reagent: single siRNA against human genes, 20 nM siRNA (0.8 pmol per well)
Timing: 120 h (drug added 48 h after transfection, read 72 h later)
Treatment: camptothecin 20 nM (about EC30) for 72 h; vehicle 0.1% DMSO in parallel plates
Read-out: 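Cell viability by ATP luminescence (CellTiter-Glo) as % of non-targeting siRNA wells, and the log2 ratio of viability without drug over viability with camptothecin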
Reading the numbers: log2 vehicle/camptothecin viability: higher = stronger sensitisation to camptothecin; viability with camptothecin: higher = more viable cells
Units: viability with camptothecin in % of control
Active means: 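Active genes have an RSA gene-level p-value below 0.001, computed from the ratios of their separate siRNAs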
The deposit covers about 26,000 reagents; this is a part drawn at random. 167 of all reagents (0.63%) count as active. 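Calls are per gene from RSA p-values that are not deposited; an individual active-marked siRNA can sensitise only weakly.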 Not all columns of the deposit are shown. Reagent sequences are not shown.

{"gene knocked down":"GJB1 (GeneID 2705)","PubChem SID":"SID164366601","log2 vehicle/camptothecin viability":0.337,"viability with camptothecin":38.1,"Call":"inactive"}
{"gene knocked down":"GJB1 (GeneID 2705)","PubChem SID":"SID164366603","log2 vehicle/camptothecin viability":0.0385,"viability with camptothecin":49.9,"Call":"inactive"}
{"gene knocked down":"GJB1 (GeneID 2705)","PubChem SID":"SID164366605","log2 vehicle/camptothecin viability":0.745,"viability with camptothecin":39,"Call":"inactive"}
{"gene knocked down":"GJB1 (GeneID 2705)","PubChem SID":"SID164366608","log2 vehicle/camptothecin viability":-0.323,"viability with camptothecin":73,"Call":"inactive"}
{"gene knocked down":"KIF19 (GeneID 124602)","PubChem SID":"SID164567174","log2 vehicle/camptothecin viability":0.102,"viability with camptothecin":56.8,"Call":"inactive"}
{"gene knocked down":"KIF19 (GeneID 124602)","PubChem SID":"SID164567175","log2 vehicle/camptothecin viability":0.282,"viability with camptothecin":50.6,"Call":"inactive"}
{"gene knocked down":"KIF19 (GeneID 124602)","PubChem SID":"SID164567176","log2 vehicle/camptothecin viability":0.162,"viability with camptothecin":83.4,"Call":"inactive"}
{"gene knocked down":"KIF19 (GeneID 124602)","PubChem SID":"SID164567177","log2 vehicle/camptothecin viability":0.213,"viability with camptothecin":64.5,"Call":"inactive"}

Part of the list above, reformatted:
| gene knocked down | PubChem SID | log2 vehicle/camptothecin viability | viability with camptothecin | Call |
| --- | --- | --- | --- | --- |
| KIF19 (GeneID 124602) | SID164567176 | 0.162 | 83.4 | inactive |
| KIF19 (GeneID 124602) | SID164567177 | 0.213 | 64.5 | inactive |

The list goes on:
{"gene knocked down":"CD22 (GeneID 933)","PubChem SID":"SID164357170","log2 vehicle/camptothecin viability":-0.124,"viability with camptothecin":105,"Call":"inactive"}
{"gene knocked down":"CD22 (GeneID 933)","PubChem SID":"SID164357173","log2 vehicle/camptothecin viability":0.259,"viability with camptothecin":56.3,"Call":"inactive"}
{"gene knocked down":"CD22 (GeneID 933)","PubChem SID":"SID164357178","log2 vehicle/camptothecin viability":-0.055,"viability with camptothecin":70,"Call":"inactive"}
{"gene knocked down":"LAMA2 (GeneID 3908)","PubChem SID":"SID164373445","log2 vehicle/camptothecin viability":-0.46,"viability with camptothecin":108,"Call":"inactive"}
{"gene knocked down":"LAMA2 (GeneID 3908)","PubChem SID":"SID164373446","log2 vehicle/camptothecin viability":-0.064,"viability with camptothecin":92.3,"Call":"inactive"}
{"gene knocked down":"LAMA2 (GeneID 3908)","PubChem SID":"SID164373447","log2 vehicle/camptothecin viability":-0.452,"viability with camptothecin":50.1,"Call":"inactive"}
{"gene knocked down":"LAMA2 (GeneID 3908)","PubChem SID":"SID164373448","log2 vehicle/camptothecin viability":-0.0114,"viability with camptothecin":73.4,"Call":"inactive"}
